Experimental data: PubChem BioAssay AID2685 (National Center for Advancing Translational Sciences (NCATS), 2010)
The other results are listed elsewhere or left out. The main result of the screen is listed elsewhere. These columns were measured beside it and carry no call. Most of these compounds were active or inconclusive in the main read-out, so they are no random draw. The note in brackets gives the kind of curve behind each potency; many fits are weak.

Assay: qHTS Assay for Lipid Storage Modulators in Drosophila S3 Cells;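 on cell number change: cells counted by Cell Tracker Red CMTPX staining in the red channel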
Details: BODIPY lipid droplet fluorescence, 18-24 h; for cell number change: measured here: cell count max response, cells fed with added oleic acid
Procedure, shortened: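 Drosophila S3 cells loaded with oleic acid (400 uM, as added) and compounds at several concentrations; lipid droplets imaged by 488-nm laser-scanning cytometry, 500–530 nm intensity and object ratio to cell channel. Percent activity normalized to 20 uM Triacsin C.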

[1] = measured here: cell number channel AC50, cells fed with added oleic acid
[2] = measured here: lipid fluorescence (Fed channel) AC50, cells fed with added oleic acid

| Compound | cell number change | AC50 [1] | AC50 [2] |
| --- | --- | --- | --- |
| CCn1cc(CCCC(=O)NCc2cccnc2)c2ccccc21 | -32.6% | 0.0731 µM [falling, full curve, poor fit] |  |
| COc1ccc(C(=O)Nc2ccc(N3CCN(C)CC3)cc2)cc1OC | 28.1% |  | 29.1 µM [rising, single point] |
| COc1ccc(C(=O)Nc2ccc(S(=O)(=O)N3CCCCC3C)cc2)c(OC)c1OC (stereo unspecified) | -39.7% | 2.59 µM [falling, full curve] | 0.731 µM [falling, full curve] |
| COc1ccccc1N(C(=O)c1csnn1)C(C(=O)NC1CCCC1)c1ccccc1 (stereo unspecified) | -7.26% |  | 0.103 µM [falling, full curve, poor fit] |
| COc1cc([N+](=O)[O-])ccc1NC(=O)CCCOc1ccccc1 | 141% |  |  |
| Cc1cc(C)cc(N2C(=O)CN(Cc3sccc3C)C2=S)c1 | -24.9% | 0.146 µM [falling, full curve, poor fit] | 0.184 µM [falling, full curve, poor fit] |
| O=C(CN1C(=O)/C(=C/c2ccc(F)cc2)SC1=S)NC1C=CS(=O)(=O)C1 (stereo unspecified) | -32.3% | 18.4 µM [falling, partial curve, poor fit] | 0.731 µM [falling, single point] |
| CCOC(=O)c1nnc2c(Br)c(-c3ccccc3)nn2c1C | -32.6% | 18.4 µM [falling, partial curve, poor fit] | 32.6 µM [falling, single point] |
| Cc1cccc(CC(=O)NCCN2CCCCC2)c1 | -3.3% |  | 4.61 µM [rising, single point] |
| CC(=O)Oc1ccc(Cl)cc1/C=C/c1cc(OC(C)=O)c2ccccc2n1 |  | 1.64 µM [rising, partial curve] | 2.91 µM [rising, partial curve] |
| O=C(CCS(=O)(=O)c1ccc(Br)s1)NC1CCCC1 |  |  | 6.51 µM [rising, single point] |
| CCCCn1c(N)c(N(Cc2ccccc2OC)C(=O)CN2C(=O)NC3(CCCC3)C2=O)c(=O)[nH]c1=O | 2.04% |  | 29.1 µM [rising, single point] |
| Cn1c(=O)c2c(nc(NCCCO)n2Cc2cccc(C(F)(F)F)c2)n(C)c1=O | -61.3% | 8.2 µM [falling, partial curve] | 29.1 µM [falling, single point] |
| Cc1ccc(-n2ncc3c(Nc4c(C)n(C)n(-c5ccccc5)c4=O)ncnc32)c(C)c1 | 7.05% |  | 0.651 µM [rising, single point] |
| CCC(=C/c1sc2ccc3ccccc3c2[n+]1C)/C=C1\Sc2ccc3ccccc3c2N1C | -59.1% | 2.31 µM [falling, full curve] |  |
| COc1ccc(S(=O)(=O)N(C)c2ccc(C(=O)NCc3ccco3)cc2)cc1 | 7.51% | 3.26 µM [rising, partial curve, poor fit] | 0.231 µM [rising, full curve] |
| O=C(OCC(=O)c1ccc[nH]1)c1ccc(Cl)nc1 | 6.73% |  | 4.61 µM [rising, single point] |
| CCc1ccc(NC(=O)CN(CC(=O)Nc2ccc(CC)cc2)CC(C)O)cc1 (stereo unspecified) | -22.2% |  |  |
| C=C(C)COc1ccc(-c2n[nH]c(C)c2-c2ccc(OC)c(OC)c2)c(O)c1 | -62.5% | 20.6 µM [falling, single point] |  |

In the list so far, two contain a thiophene ring, fused or not:

| Compound | cell number change | AC50 [1] | AC50 [2] |
| --- | --- | --- | --- |
| Cc1cc(C)cc(N2C(=O)CN(Cc3sccc3C)C2=S)c1 | -24.9% | 0.146 µM [falling, full curve, poor fit] | 0.184 µM [falling, full curve, poor fit] |
| O=C(CCS(=O)(=O)c1ccc(Br)s1)NC1CCCC1 |  |  | 6.51 µM [rising, single point] |

(listing goes on)

| Compound | cell number change | AC50 [1] | AC50 [2] |
| --- | --- | --- | --- |
| CN(C)c1ccc(C2OC(=O)C3(CCCC3)C(=O)C2(C)C)cc1 (stereo unspecified) | -46.2% | 16.4 µM [falling, single point] | 29.1 µM [falling, single point] |
| Cc1ccc(S(=O)(=O)N2[C@@H](c3ccc(Cl)cc3)C(C(=O)O)=CC[C@H]2c2cccs2)cc1 | 1.58% |  | 1.84 µM [rising, full curve, poor fit] |
| O=C(NCCOc1ccc(Cl)cc1)C1CC(=O)N(c2ccc(F)cc2)C1 (stereo unspecified) | -3.31% |  | 0.0184 µM [rising, full curve, poor fit] |
| c1nnc2c3c4c(sc3ncn12)CCCC4 | -14.5% |  | 29.1 µM [falling, single point] |
| COC(=O)[C@@]1(Cc2ccc(OC)cc2)[C@H]2c3cc(C(=O)N(C)C)n(CCSCCO)c3C[C@H]2CN1C(=O)c1ccccc1 | 21.2% |  | 29.1 µM [rising, single point] |
| O=C1CCN(Cc2ccccc2)S(=O)(=O)c2ccc(C(F)(F)F)cc21 | 1.68% |  | 6.51 µM [rising, single point] |
| O=P1(O)C=C(c2ccccc2)OC(c2ccccc2)=C1 | 14.9% |  |  |
| Cc1cc(C)nc(S/C=C/C(=O)c2ccc(F)cc2)n1 | -22.5% | 0.731 µM [falling, full curve, poor fit] | 0.259 µM [falling, full curve] |
| Cc1ccc(NC(=S)N(CCCN2CCCC2)Cc2cccn2Cc2ccc(Cl)cc2)cc1Cl | -79.8% | 20.6 µM [falling, partial curve] | 18.4 µM [falling, partial curve] |
| Cc1ccccc1NC(C)C(=O)N/N=C/c1c[nH]c2ccccc12 (stereo unspecified) |  | 0.461 µM [rising, partial curve, poor fit] | 0.291 µM [rising, full curve] |
| O=C(Nn1cnnc1)c1ccc(F)c(S(=O)(=O)N2CCCCC2)c1 | -18% |  | 1.03 µM [falling, partial curve, poor fit] |
| Fc1ccc(CSc2nnc(-c3cccnc3)o2)cc1 | 3.84% |  | 0.731 µM [falling, single point] |
| O=c1[nH]c2ccc(NC(=S)Nc3ccc(Cl)cc3Cl)cc2[nH]1 | -48.9% | 20.6 µM [falling, single point] | 29.1 µM [falling, single point] |
| C=CCNC(=O)c1cccc(Br)c1 |  | 6.51 µM [falling, single point] |  |
| CCN(CC)c1ccc(NC(=O)CSc2nc(C)cc(=O)[nH]2)cc1 | 54.3% | 25.9 µM [rising, single point] |  |
| COc1cccc(-c2nc(CS(=O)CC(=O)NCCc3ccccc3)c(C)o2)c1 (stereo unspecified) | 12.5% |  |  |
| Cc1ccc(C(=O)Nc2nc(-c3cc(Cl)sc3Cl)cs2)cc1 | -5.6% |  | 0.411 µM [falling, partial curve, poor fit] |
| CC1(C)Cc2nc(NCCN3CCOCC3)c(C#N)cc2CO1 | -5.82% |  | 16.4 µM [falling, partial curve, poor fit] |
| O=S(=O)(/N=C(/Nc1ccccn1)c1ccccc1)c1ccc(F)cc1 | -26% |  | 6.51 µM [falling, single point] |

For reference, part of the list above:

| Compound | cell number change | AC50 [1] | AC50 [2] |
| --- | --- | --- | --- |
| Cc1ccc(C(=O)Nc2nc(-c3cc(Cl)sc3Cl)cs2)cc1 | -5.6% |  | 0.411 µM [falling, partial curve, poor fit] |
| CC1(C)Cc2nc(NCCN3CCOCC3)c(C#N)cc2CO1 | -5.82% |  | 16.4 µM [falling, partial curve, poor fit] |

Remaining list, next part

| Compound | cell number change | AC50 [1] | AC50 [2] |
| --- | --- | --- | --- |
| O=P(O)(Cc1ccccc1)Cc1ccccc1 | 28.1% |  |  |
| O=C(C1=NNCC1c1ccc(Cl)cc1)C1CO1 (stereo unspecified) | 20.9% | 6.51 µM [rising, single point] | 1.46 µM [falling, full curve, poor fit] |
| COc1ccc(CCNC(=O)C23CCC(C)(C(=O)O2)C3(C)C)cc1OC (stereo unspecified) | 24.5% |  | 29.1 µM [falling, single point] |
| O=S1(=O)c2ccccc2N=NN1Cc1cc(Cl)cc(Cl)c1 | -1.07% |  | 6.51 µM [falling, single point] |
| COc1ccc(C(=O)C(C)OC(=O)CCN2C(=O)C3CC=CCC3C2=O)cc1 (stereo unspecified) | -3.55% |  | 0.116 µM [rising, full curve, poor fit] |
| COc1cc(C(=O)NCC2CCCN2S(=O)(=O)c2cccs2)cc(OC)c1OC (stereo unspecified) | 24.6% |  |  |
| CCOC(=O)N1CCN(C(=O)CCS(=O)(=O)c2ccc3c(c2)CC(C)N3C(=O)CC)CC1 (stereo unspecified) | -7.22% |  | 29.1 µM [rising, single point] |
| Cc1nn2c3ccccc3nc2c2ccccc12 |  | 0.116 µM [falling, full curve, poor fit] |  |
| C=CCc1c(C)nc(SC)nc1Nc1ccc(C)cc1 | 12.2% | 0.082 µM [rising, full curve] | 0.00461 µM [rising, full curve, poor fit] |
| O=C(c1ccc(Cl)c(Cl)c1)c1cnc(Nc2ccccc2)s1 | -32.4% |  |  |
| Cc1nn(-c2ccccc2)c(Cl)c1/C=C(\CC(=O)O)c1nc2ccccc2s1 | 59.1% | 14.6 µM [rising, partial curve] |  |
| CCOc1ccc(NC(=O)CC(C)S(=O)(=O)c2ccc3c(c2)NC(=O)CO3)cc1 (stereo unspecified) | -13.5% |  | 0.00461 µM [falling, full curve, poor fit] |
| NC(=S)N/N=C/c1ccc(C(F)(F)F)cc1 | 16.7% |  | 8.2 µM [falling, partial curve, poor fit] |
| O=C(O)c1ccc(NS(=O)(=O)c2ccc3nnn(O)c3c2)cc1 | -28% | 4.61 µM [falling, full curve, poor fit] | 29.1 µM [falling, single point] |
| CC1CC(C)CN(S(=O)(=O)c2ccc(C(=O)NCCCn3ccnc3)cc2)C1 (stereo unspecified) | -35.9% | 23.1 µM [falling, partial curve] | 16.4 µM [falling, partial curve] |
| CC1=C(C(=O)OCCCCCl)C(c2cc3c(cc2Br)OCO3)NC(=O)N1 (stereo unspecified) | -1.09% |  |  |
| COc1cccc(N2CCN(C(=S)NCc3ccco3)CC2)c1 | 21.6% |  | 29.1 µM [rising, single point] |
| O=C(Nc1nccs1)C1CCN(S(=O)(=O)c2ccc(Cl)c(C(F)(F)F)c2)CC1 | 93.5% | 13 µM [rising, partial curve] | 2.91 µM [rising, partial curve] |
